The target of the assay is Arabidopsis thaliana legumain isoform γ, activated (AtLEGγ) (Arabidopsis thaliana) (UniProt Q39119). In words: condition: inhibitor up to 15-fold the enzyme concentration (50 nM enzyme); enzyme inhibition kinetics (Ki, Morrison equation); turnover of 50 μM Z-Ala-Ala-Asn-AMC by 50 nM legumain, 25°C, 20 mM citric acid pH 5.5, 100 mM NaCl, 0.02% Tween 20, 2 mM DTT; inhibitor in 1:2 serial dilutions from 15-fold the enzyme concentration, quadruplicates; both purified.

By UniProt entry, the sequences of proteins in these tests, tags left out. Where a name states a change or a piece, a line headed by the entry shows the natural chain unless it says otherwise.
UniProt Q39119: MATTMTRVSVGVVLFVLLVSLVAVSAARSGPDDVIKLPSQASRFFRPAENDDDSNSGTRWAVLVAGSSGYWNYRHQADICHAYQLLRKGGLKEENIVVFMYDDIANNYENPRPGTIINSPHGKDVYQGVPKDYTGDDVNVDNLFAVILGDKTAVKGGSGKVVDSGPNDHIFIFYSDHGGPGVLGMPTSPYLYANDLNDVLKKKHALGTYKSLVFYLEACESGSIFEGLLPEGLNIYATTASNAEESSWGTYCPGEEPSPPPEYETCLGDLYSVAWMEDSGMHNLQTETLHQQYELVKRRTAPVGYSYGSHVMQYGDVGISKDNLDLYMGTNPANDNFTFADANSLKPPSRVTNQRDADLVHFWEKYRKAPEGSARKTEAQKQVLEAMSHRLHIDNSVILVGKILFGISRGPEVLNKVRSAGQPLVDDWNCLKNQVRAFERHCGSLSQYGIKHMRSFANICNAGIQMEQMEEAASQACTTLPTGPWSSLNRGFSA

These are yes or no findings as the source states them, for the method shown.

B1: N-terminal domain of AtCYT6 (AtCYT6-NTD, A35-D127) (domain or fragment, Arabidopsis thaliana, UniProt Q8H0X6-1 35-127, looked up)
chain: ALVGGVGDVPANQNSGEVESLARFAVDEHNKKENALLEFARVVKAKEQVVAGTLHHLTLEILEAGQKKLYEAKVWVKPWLNFKELQEFKPASD
notes: Arabidopsis thaliana cystatin 6, N-terminal cystatin domain, residues A35-D127; Cloned into pET-28; source: E. coli BL21(DE3), purified (Ni-NTA, SEC)
Turning to B1, the binding entry is on record as “no binding”.

For the origin of these results see publication PMC10952133, “Phytocystatin 6 is a context‐dependent, tight‐binding inhibitor of Arabidopsis thaliana legumain isoform β” (The Plant Journal, 2023).
